Reference: PMC3514159
No constants are given. Whether binding was seen depends on the method and setting. For some of these results: In cells and extracts the contact can be indirect. Some binding calls cover weakened binding; strength is not graded here. Tags and fused reporters may be left off the sequences shown.

Chains of the proteins cited; added tags and fusions are not shown.
UniProt P09022: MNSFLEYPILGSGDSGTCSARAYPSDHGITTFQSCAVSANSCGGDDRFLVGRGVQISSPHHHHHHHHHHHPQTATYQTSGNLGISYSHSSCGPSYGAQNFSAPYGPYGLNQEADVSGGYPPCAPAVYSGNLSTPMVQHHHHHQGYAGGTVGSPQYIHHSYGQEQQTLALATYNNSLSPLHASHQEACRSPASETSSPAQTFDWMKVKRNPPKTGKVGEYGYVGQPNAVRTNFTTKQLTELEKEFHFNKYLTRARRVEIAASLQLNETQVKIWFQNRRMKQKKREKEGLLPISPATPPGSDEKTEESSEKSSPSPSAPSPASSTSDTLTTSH

Experiments:
VC155-Hoxa1 (mouse) = VC155-Hoxa1 (mouse) (UniProt P09022); assay: split reporter; BiFC in transfected MCF10A cells: VN173-hORF with VC155-Hoxa1; fixed 24 h after transfection, confocal microscopy
Hoxa1 (mouse) = Hoxa1 (mouse) (UniProt P09022); assay: two-hybrid; DB-Hoxa1 (Gal4 DNA binding domain) in MATα Y8930 mated with the AD-hORF library (human ORFeome v3.1) in MATa Y8800; 30°C; selection on Sc-L-T-H + 1 mM 3AT, retest on Sc-L-T-H, Sc-L-T-A and Sc-L-T-H-A+3AT

| Binder | binding (VC155-Hoxa1 (mouse)) | binding (Hoxa1 (mouse)) |
| --- | --- | --- |
| chromosome 1 open reading frame 94 (protein, UniProt Q6P1W5 1-598) MRGGGGCVLALGGQRGFQKERRRMASGNGLPSSSALVAKGPCALGPFPRYIWIHQDTPQDSLDKTCHEIWKRVQGLPEASQPWTSMEQLSVPVVGTLRGNELSFQEEALELSSGKDEISLLVEQEFLSLTKEHSILVEESSGELEVPGSSPEGTRELAPCILAPPLVAGSNERPRASIIVGDKLLKQKVAMPVISSRQDCDSATSTVTDILCAAEVKSSKGTEDRGRILGDSNLQVSKLLSQFPLKSTETSKVPDNKNVLDKTRVTKDFLQDNLFSGPGPKEPTGLSPFLLLPPRPPPARPDKLPELPAQKRQLPVFAKICSKPKADPAVERHHLMEWSPGTKEPKKGQGSLFLSQWPQSQKDACGEEGCCDAVGTASLTLPPKKPTCPAEKNLLYEFLGATKNPSGQPRLRNKVEVDGPELKFNAPVTVADKNNPKYTGNVFTPHFPTAMTSATLNQPLWLNLNYPPPPVFTNHSTFLQYQGLYPQQAARMPYQQALHPQLGCYSQQVMPYNPQQMGQQIFRSSYTPLLSYIPFVQPNYPYPQRTPPKMSANPRDPPLMAGDGPQYLFPQGYGFGSTSGGPLMHSPYFSSSGNGINF | binds | binds |
| four and a half LIM domains 5 (protein, UniProt Q5TD97 1-284) MTTAHFYCQYCTASLLGKKYVLKDDSPYCVTCYDRVFSNYCEECKKPIESDSKDLCYKDRHWHEGCFKCTKCNHSLVEKPFAAKDERLLCTECYSNECSSKCFHCKRTIMPGSRKMEFKGNYWHETCFVCENCRQPIGTKPLISKESGNYCVPCFEKEFAHYCNFCKKVITSGGITFCDQLWHKECFLCSGCRKDLCEEQFMSRDDYPFCVDCYNHLYANKCVACSKPISGLTGAKFICFQDSQWHSECFNCGKCSVSLVGKGFLTQNKEIFCQKCGSGMDTDI | binds | binds |
| keratin associated protein 4-12 (protein, UniProt Q9BQ66 1-201) MVNSCCGSVCSDQGCGLENCCRPSCCQTTCCRTTCCRPSCCVSSCCRPQCCQSVCCQPTCCRPSCCQTTCCRTTCCRPSCCVSSCCRPQCCQSVCCQPTCCRPSCCQTTCCRTTCCRPSCCVSSCCRPQCCQSVCCQPTCCRPSCCISSSCCPSCCESSCCRPCCCLRPVCGRVSCHTTCYRPTCVISTCPRPLCCASSCC | binds | binds |
| lectin, galactoside-binding, soluble, 13 (protein, UniProt Q9UHV8 1-139) MSSLPVPYKLPVSLSVGSCVIIKGTPIHSFINDPQLQVDFYTDMDEDSDIAFRFRVHFGNHVVMNRREFGIWMLEETTDYVPFEDGKQFELCIYVHYNEYEIKVNGIRIYGFVHRIPPSFVKMVQVSRDISLTSVCVCN | binds | binds |
| family with sequence similarity 154, member A (protein, UniProt Q8IYX7 1-474) MKTKCICELCSCGRHHCPHLPTKIYDKTEKPCLLSEYTENYPFYHSYLPRESFKPRREYQKGPIPMEGLTTSRRDFGPHKVAPVKVHQYDQFVPSEENMDLLTTYKKDYNPYPVCRVDPIKPRDSKYPCSDKMECLPTYKADYLPWNQPRREPLRLEHKYQPASVRFDNRTTHQDDYPIKGLVKTISCKPLAMPKLCNIPLEDVTNYKMSYVAHPVEKRFVHEAEKFRPCEIPFESLTTQKQSYRGLMGEPAKSLKPLARPPGLDMPFCNTTEFRDKYQAWPMPRMFSKAPITYVPPEDRMDLLTTVQAHYTCPKGAPAQSCRPALQIKKCGRFEGSSTTKDDYKQWSSMRTEPVKPVPQLDLPTEPLDCLTTTRAHYVPHLPINTKSCKPHWSGPRGNVPVESQTTYTISFTPKEMGRCLASYPEPPGYTFEEVDALGHRIYKPVSQAGSQQSSHLSVDDSENPNQRELEVLA | binds | binds |

More lines, now with the values ahead:

| binding (VC155-Hoxa1 (mouse)) | binding (Hoxa1 (mouse)) | Binder |
| --- | --- | --- |
| binds | binds | leupaxin (protein, UniProt O60711 1-386) MEELDALLEELERSTLQDSDEYSNPAPLPLDQHSRKETNLDETSEILSIQDNTSPLPAQLVYTTNIQELNVYSEAQEPKESPPPSKTSAAAQLDELMAHLTEMQAKVAVRADAGKKHLPDKQDHKASLDSMLGGLEQELQDLGIATVPKGHCASCQKPIAGKVIHALGQSWHPEHFVCTHCKEEIGSSPFFERSGLAYCPNDYHQLFSPRCAYCAAPILDKVLTAMNQTWHPEHFFCSHCGEVFGAEGFHEKDKKPYCRKDFLAMFSPKCGGCNRPVLENYLSAMDTVWHPECFVCGDCFTSFSTGSFFELDGRPFCELHYHHRRGTLCHGCGQPITGRCISAMGYKFHPEHFVCAFCLTQLSKGIFREQNDKTYCQPCFNKLFPL |
| binds | binds | mannosyl (α-1,6-)-glycoprotein β-1,6-N-acetyl-glucosaminyltransferase, isozyme B (protein, UniProt Q3V5L5 1-792) MITVNPDGKIMVRRCLVTLRPFRLFVLGIGFFTLCFLMTSLGGQFSARRLGDSPFTIRTEVMGGPESRGVLRKMSDLLELMVKRMDALARLENSSELHRAGGDLHFPADRMPPGAGLMERIQAIAQNVSDIAVKVDQILRHSLLLHSKVSEGRRDQCEAPSDPKFPDCSGKVEWMRARWTSDPCYAFFGVDGTECSFLIYLSEVEWFCPPLPWRNQTAAQRAPKPLPKVQAVFRSNLSHLLDLMGSGKESLIFMKKRTKRLTAQWALAAQRLAQKLGATQRDQKQILVHIGFLTEESGDVFSPRVLKGGPLGEMVQWADILTALYVLGHGLRVTVSLKELQSNLGVPPGRGSCPLTMPLPFDLIYTDYHGLQQMKRHMGLSFKKYRCRIRVIDTFGTEPAYNHEEYATLHGYRTNWGYWNLNPKQFMTMFPHTPDNSFMGFVSEELNETEKRLIKGGKASNMAVVYGKEASIWKLQGKEKFLGILNKYMEIHGTVYYESQRPPEVPAFVKNHGLLPQPEFQQLLRKAKLFIGFGFPYEGPAPLEAIANGCIFLQSRFSPPHSSLNHEFFRGKPTSREVFSQHPYAENFIGKPHVWTVDYNNSEEFEAAIKAIMRTQVDPYLPYEYTCEGMLERIHAYIQHQDFCRAPDPALPEAHAPQSPFVLAPNATHLEWARNTSLAPGAWPPAHALRAWLAVPGRACTDTCLDHGLICEPSFFPFLNSQDAFLKLQVPCDSTESEMNHLYPAFAQPGQECYLQKEPLLFSCAGSNTKYRRLCPCRDFRKGQVALCQGCL |
| binds | binds | ligand of numb-protein X 2 (protein, UniProt Q8N448 1-690) MGTTSDEMVSVEQTSSSSLNPLCFECGQQHWTRENHLYNYQNEVDDDLVCHICLQPLLQPLDTPCGHTFCYKCLRNFLQEKDFCPLDRKRLHFKLCKKSSILVHKLLDKLLVLCPFSSVCKDVMQRCDLEAHLKNRCPGASHRRVALERRKTSRTQAEIENENGPTLLDPAGTLSPEADCLGTGAVPVERHLTSASLSTWSEEPGLDNPAFEESAGADTTQQPLSLPEGEITTIEIHRSNPYIQLGISIVGGNETPLINIVIQEVYRDGVIARDGRLLAGDQILQVNNYNISNVSHNYARAVLSQPCNTLHLTVLRERRFGNRAHNHSDSNSPREEIFQVALHKRDSGEQLGIKLVRRTDEPGVFILDLLEGGLAAQDGRLSSNDRVLAINGHDLKYGTPELAAQIIQASGERVNLTIARPGKPQPGNTIREAGNHSSSSQHHTPPPYYSRPSSHKDLTQCVTCQEKHITVKKEPHESLGMTVAGGRGSKSGELPIFVTSVPPHGCLARDGRIKRGDVLLNINGIDLTNLSHSEAVAMLKASAASPAVALKALEVQIVEEATQNAEEQPSTFSENEYDASWSPSWVMWLGLPSTLHSCHDIVLRRSYLGSWGFSIVGGYEENHTNQPFFIKTIVLGTPAYYDGRLKCGDMIVAVNGLSTVGMSHSALVPMLKEQRNKVTLTVICWPGSLV |
